Laboratory results: PubChem BioAssay AID493014 (National Center for Advancing Translational Sciences (NCATS), 2011)
This is one part of the list. The main result of the screen is listed elsewhere. These columns were measured beside it and carry no call. Most of these compounds were active or inconclusive in the main read-out, so they are no random draw. The note in brackets gives the kind of curve behind each potency; many fits are weak.

Test: qHTS Assay to Find Inhibitors of Chronic Active B-Cell Receptor Signaling
Conditions: ABC-DLBCL IkBa-CBG/CBR reporter, luminescence ratio (green luciferase fused to IkBa over red control in TMD8 lymphoma cells), 4 h
Procedure, shortened: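 TMD8 human ABC-DLBCL cells with doxycycline-inducible IκBα–green luciferase fusion and unfused red luciferase, in 0.5% FBS medium; compounds up to 46 uM, 4 h at 37C. Green/red luminescence ratio, filter-overlap corrected, fitted to concentration-response curves.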

[1] = measured here: CBR red luminescence, cell number
[2] = measured here: IkBa-CBG green luminescence

Row | Compound | AC50 [1] | AC50 [2]
1 | Cc1ccc(-c2csc3nc(C)n(N)c(=O)c23)o1 | 0.0058 µM [rising, full curve, poor fit] | 
2 | COc1ccc(-c2csc(NC(=S)NC(=O)c3ccco3)n2)cc1 | 1.26 µM [rising, full curve, poor fit] | 
3 | Cc1ccc2cc(CN(CCCO)S(=O)(=O)c3ccccc3F)c(=O)[nH]c2c1C | 3.16 µM [falling, full curve] | 
4 | COc1ccccc1CNCC(O)Cn1c2ccccc2c2ccccc21 (configuration not stated) | 11.6 µM [falling, partial curve, poor fit] | 
5 | O=C(COC(=O)CNC(=O)c1ccccc1)Nc1ccccc1Cl | 17.8 µM [rising, partial curve, poor fit] | 
6 | COc1cccc(NC(=O)CSc2nc(=O)[nH]c3c2CCCC3)c1 | 14.1 µM [falling, single point] | 
7 | CC(CO)(CO)NCc1ccc(-c2ccccc2)cc1 | 16.4 µM [rising, single point] | 
8 | O=c1oc2ccccc2c(NCc2ccccc2)c1[N+](=O)[O-] | 4.11 µM [falling, partial curve] | 
9 | O=C(CCn1cnc2ccccc2c1=O)Nc1ccc(S(=O)(=O)N2CCCCC2)cc1 | 3.55 µM [falling, partial curve, poor fit] | 
10 | CCCC(C)c1nnc(NC(=O)CCS(=O)(=O)Cc2ccccc2)s1 (configuration not stated) | 2 µM [falling, full curve, poor fit] | 
11 | O=Cc1cc2ccccc2nc1SCc1ccc(Cl)cc1 | 1.78 µM [rising, full curve, poor fit] | 3.16 µM [falling, single point]
12 | Cc1ccc(-c2nc(-c3ccncc3)no2)cc1 | 1 µM [rising, partial curve, poor fit] | 
13 | Cc1ccc(C(C)C)c(OCC(=O)Nc2cccc(S(=O)(=O)NC3=NCCCCC3)c2)c1 | 25.1 µM [falling, single point] | 
14 | CCCCNc1ccc2nsnc2c1[N+](=O)[O-] | 20.6 µM [rising, partial curve, poor fit] | 
15 | COc1ccccc1/C=C/C=N/NC(=O)Cc1cccs1 | 20.6 µM [falling, partial curve, poor fit] | 
16 | COc1ccc(C(=O)c2ccccc2)cc1Br | 11.2 µM [rising, partial curve] | 
17 | CC(C)C(OC(=O)CCC(=O)Nc1nccs1)C(=O)NC1CCCCC1 (configuration not stated) | 12.6 µM [falling, partial curve, poor fit] | 
18 | COc1ccccc1CNC(=O)c1cccc(NC(=O)c2ccccc2)c1 | 35.5 µM [falling, single point] | 
19 | CCCCn1c(SC(C)C(=O)NCC2CCCO2)nc2cc(C(=O)OC)ccc2c1=O (configuration not stated) | 1.64 µM [falling, partial curve, poor fit] | 
20 | O=C(Nc1cccc(Cl)c1)N1N=CCC1c1ccccc1 (configuration not stated) | 2.51 µM [rising, full curve, poor fit] | 
21 | CN1CCN(NC(=O)Nc2ccc(Br)cc2)CC1 | 3.55 µM [rising, full curve] | 

Row | Compound | AC50 [1] | AC50 [2]
22 | COc1cc(C)ccc1OCCOc1c(C)cccc1Cl | 17.8 µM [rising, partial curve] | 
23 | Cc1csc(NC(=O)CSc2nc3ccccc3c3c2CCCC3)n1 | 2.59 µM [falling, full curve] | 16.4 µM [rising, partial curve, poor fit]
24 | CC(C)CC(NC(=O)c1ccc(Cl)cc1)C(=O)OCC(=O)c1ccc2c(c1)NC(=O)CO2 (configuration not stated) | 16.4 µM [rising, partial curve] | 
25 | COc1cc(/C=C/C(=O)O)cc(S(=O)(=O)N2CCc3ccccc3C2)c1OC | 6.31 µM [rising, single point] | 
26 | CCC(CC)C(=O)Nc1cccc(C(=O)Nc2ccc(OC)cc2[N+](=O)[O-])c1 | 4.47 µM [rising, full curve, poor fit] | 
27 | CCC(C)Sc1cccc(-c2nc3ccc(C)cn3c2NCc2ccccc2)c1 (configuration not stated) | 6.51 µM [falling, single point] | 
28 | CN(C)CCCN(C(=O)c1ccc2c(c1)CCCC2)c1nc2cc3c(cc2s1)OCO3 | 12.6 µM [falling, single point] | 
29 | CN=C1SC(CC(=O)Nc2ccc(N3CCOCC3)cc2)C(=O)N1C (configuration not stated) | 18.4 µM [rising, single point] | 
30 | Cc1cc(Cl)ccc1OCC(=O)N(Cc1cccs1)C1CCS(=O)(=O)C1 (configuration not stated) | 20 µM [falling, partial curve, poor fit] | 
31 | COc1ccc2cc(OCC(=O)NNC(=O)Nc3ccc(OC)c(OC)c3)ccc2c1 | 8.91 µM [falling, partial curve] | 
32 | COc1ccc(-c2nn(-c3ccccc3)cc2/C=C(\C#N)C(N)=O)cc1[N+](=O)[O-] | 3.55 µM [rising, partial curve, poor fit] | 
33 | O=C(Nc1ccc2c(c1)OCCO2)C1CC(c2ccc(F)cc2)=NO1 (configuration not stated) | 12.6 µM [falling, single point] | 
34 | COc1ccc2cc(CN(CCc3ccccc3)Cc3nnnn3CC3CCCO3)c(=O)[nH]c2c1 (configuration not stated) | 2.82 µM [falling, full curve, poor fit] | 
35 | CCN(C(=O)COC(=O)c1ccc(Cl)c(N)c1)C1CCS(=O)(=O)C1 (configuration not stated) | 3.55 µM [falling, full curve] | 
36 | Cc1cc(C(F)(F)F)c(C#N)c(SCC(=O)NC2CC2)n1 | 12.6 µM [rising, partial curve, poor fit] | 
37 | O=c1[nH]c(C2CCN(S(=O)(=O)/C=C/c3ccccc3)CC2)nc2c1nnn2Cc1ccc(F)cc1 | 20 µM [falling, single point] | 
38 | CCCCN=Cc1sc2ccc(OCC)cc2c1O | 23.1 µM [falling, single point] | 
39 | CCc1ccc(Oc2coc3cc(OC(=O)c4cc5ccccc5oc4=O)ccc3c2=O)cc1 | 18.4 µM [rising, single point] | 
40 | O=C1CN(C(=O)c2ccc(Cl)nc2)c2ccccc2N1 | 22.4 µM [rising, single point] | 
41 | COc1ccc(-c2csc(NC(=S)NC(=O)c3ccco3)n2)cc1Br | 7.08 µM [rising, partial curve, poor fit] | 
42 | O=C(/C=C/c1ccc2c(c1)OCCO2)c1ccccc1 | 35.5 µM [falling, single point] | 

Row | Compound | AC50 [1] | AC50 [2]
43 | CC(C)[C@H](NC(=O)N1CCn2c1nc1ccccc12)C(=O)NCc1ccccc1Cl | 11.2 µM [falling, single point] | 
44 | COc1ccccc1C(=O)Nc1ccc2oc(-c3ccc(F)cc3)nc2c1 | 0.164 µM [falling, full curve, poor fit] | 
45 | COc1cccc(-c2cc(=O)[nH][nH]2)c1 | 20 µM [falling, partial curve, poor fit] | 6.31 µM [rising, partial curve, poor fit]
46 | COC(=O)c1ccccc1NC(=O)CN(c1ccc(OC)cc1)S(C)(=O)=O | 29.1 µM [rising, single point] | 
47 | COc1ccc(C2C=C(Nc3ccccc3)C(=O)N2c2ccccc2)cc1OC (configuration not stated) | 20.6 µM [falling, single point] | 
48 | CCn1c2ccccc2c2cc(Nc3cc(C)nc4ncnn34)ccc21 | 6.51 µM [rising, full curve] | 8.2 µM [falling, partial curve]
49 | O=c1nc(/C=C/c2ccc(O)c(O)c2)oc2ccccc12 | 7.08 µM [falling, partial curve] | 
50 | CCOC(=O)c1ccc(NC(=O)CSc2nnnn2C2CCCCC2)cc1 | 32.6 µM [falling, partial curve, poor fit] | 
51 | O=C(CC12CC3CC(CC(C3)C1)C2)N1CCCC1 | 23.1 µM [falling, partial curve] | 
52 | COc1ccccc1CC(=O)Nc1ccc2c(C)cc(=O)oc2c1 | 12.6 µM [falling, partial curve, poor fit] | 
53 | C[C@H](CO)N1C[C@H](C)[C@@H](CN(C)C(=O)Nc2ccc3c(c2)OCO3)Oc2ccc(NS(=O)(=O)c3ccccc3)cc2C1=O | 0.731 µM [rising, full curve, poor fit] | 
54 | O=C(NCc1ccc(F)cc1)c1cccc(S(=O)(=O)N2CCOCC2)c1 | 14.6 µM [rising, partial curve, poor fit] | 
55 | Cc1nc(-c2ccccn2)nc(SCC(=O)c2ccccc2)c1Cl | 0.794 µM [falling, full curve, poor fit] | 
56 | CCCCn1cnc2c(oc3ccccc32)c1=O | 0.501 µM [rising, full curve, poor fit] | 
57 | CC(OC(=O)CCCOc1ccccc1)C(=O)NC(N)=O (configuration not stated) | 29.1 µM [rising, single point] | 
58 | CC(C)(C)c1ccc(C(=O)N2CCC(C(=O)NC3CC3)CC2)cc1 | 4.47 µM [rising, full curve, poor fit] | 
59 | Oc1ccc(N2CCN(c3ncnc4sc(-c5ccccc5)cc34)CC2)cc1 | 22.4 µM [falling, partial curve, poor fit] | 
60 | Cc1ccc(C)c(NC(=O)c2cc3ccccc3o2)c1 | 15.8 µM [falling, partial curve, poor fit] | 
61 | COc1ccc(C2C(C(C)=O)=C(O)C(=O)N2c2nc3ccccc3s2)cc1OC (configuration not stated) | 6.31 µM [rising, single point] | 
62 | COc1ccc(CN2C[C@H]3CCCN3c3cc(Br)ccc3S2(=O)=O)cc1 | 8.2 µM [rising, partial curve] | 14.6 µM [falling, partial curve]

2 entries from above, with each value named.
O=C1CN(C(=O)c2ccc(Cl)nc2)c2ccccc2N1
  AC50 [1]: 22.4 µM [rising, single point]
COc1ccc(-c2csc(NC(=S)NC(=O)c3ccco3)n2)cc1Br
  AC50 [1]: 7.08 µM [rising, partial curve, poor fit]
